Test results published in US5405854A, “Sulfonamidocarboxamides” (Hoffmann-La Roche Inc., priority 1992, dated 1995).
At least one compound was matched to its structure with a doubt left.

Molecular target: trypsin
Assay: inhibition of the amidolytic activity of trypsin (chromogenic substrate S-2251)
Format: biochemical
Details: substrate S-2251 in 200 and 750 μM final concentration

Compound `N=C(N)N1CCC[C@@H](CNC(=O)C[C@H](NS(=O)(=O)c2ccc3ccccc3c2)C(=O)N(CCC(=O)O)C2CC2)C1` [Example 4k, (S)-[[3-[(S)-1-(amino-imino-methyl)piperidin-3-ylmethylcarbamoyl]-2-(naphthalene-2-sulfonylamino)propionyl]cyclopropylamino]propionic acid] has a Ki of 8.1 µM.
